PubChem BioAssay AID652272 – Drosophila RNAi Screening Center – 2013

Purpose: 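Genes whose knock-down decreases or increases Hedgehog reporter output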 (primary screen)
Cell system: Drosophila clone 8 (Cl8) cells
Knock-down reagent: long dsRNA against Drosophila genes
Detection: 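Plate reader light from a firefly reporter under a ptc promoter fragment that responds to Hedgehog, with Renilla light as transfection reference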
Direction: firefly Hh reporter signal: higher = more ptc reporter light; Renilla reference signal: higher = more Renilla control light
Rule for the call: 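Hit when the z-score averaged over two replicates is under -2 or over +3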
Meaning of the calls: active = hit: reporter lowered or raised; inactive = not a hit
The screen tested about 21,000 reagents; this is an unselected part of those with a known target gene and a result. Of all reagents, 503 (2.4%) were called active. 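Raw plate light values, not normalised; calls rest on replicate z-scores that were not deposited; hits include reporter decreases as well as increases.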 Unmarked entries are inactive. Reagents against one gene are numbered here. Not stated in the record: the amount of reagent, the time to read-out.

With E(spl)m2-BFM (GeneID 43155), how do the results read?
firefly Hh reporter signal, replicate 1: 2.82e5; firefly Hh reporter signal, replicate 2: 42576; Renilla reference signal, replicate 1: 18520; Renilla reference signal, replicate 2: 1568

With CG18324 (GeneID 36568), what does the deposit list?
firefly Hh reporter signal, replicate 1: 93820; firefly Hh reporter signal, replicate 2: 55240; Renilla reference signal, replicate 1: 3877; Renilla reference signal, replicate 2: 2080

With CG15719 (GeneID 32249), how do the results read?
firefly Hh reporter signal, replicate 1: 75092; firefly Hh reporter signal, replicate 2: 3.03e5; Renilla reference signal, replicate 1: 1943; Renilla reference signal, replicate 2: 10569

What did the screen give for CG31183 (GeneID 41927) #1?
firefly Hh reporter signal, replicate 1: 69540; firefly Hh reporter signal, replicate 2: 69172; Renilla reference signal, replicate 1: 1990; Renilla reference signal, replicate 2: 1904

For CG31183 (GeneID 41927) #2, what does the deposit list?
firefly Hh reporter signal, replicate 1: 1.13e5; firefly Hh reporter signal, replicate 2: 74736; Renilla reference signal, replicate 1: 3928; Renilla reference signal, replicate 2: 3040

What is on record for CG5611 (GeneID 43318)?
firefly Hh reporter signal, replicate 1: 87298; firefly Hh reporter signal, replicate 2: 1.09e5; Renilla reference signal, replicate 1: 1809; Renilla reference signal, replicate 2: 2649

What did the screen give for CG15177 (GeneID 40810)?
firefly Hh reporter signal, replicate 1: 56221; firefly Hh reporter signal, replicate 2: 78374; Renilla reference signal, replicate 1: 2345; Renilla reference signal, replicate 2: 2393

With CG30375 (GeneID 246575), what was measured?
firefly Hh reporter signal, replicate 1: 97048; firefly Hh reporter signal, replicate 2: 45219; Renilla reference signal, replicate 1: 2698; Renilla reference signal, replicate 2: 4048

For L (GeneID 36609) #1, how do the results read?
firefly Hh reporter signal, replicate 1: 62440; firefly Hh reporter signal, replicate 2: 37232; Renilla reference signal, replicate 1: 1930; Renilla reference signal, replicate 2: 3158

With L (GeneID 36609) #2, how do the results read?
firefly Hh reporter signal, replicate 1: 76352; firefly Hh reporter signal, replicate 2: 34643; Renilla reference signal, replicate 1: 1891; Renilla reference signal, replicate 2: 2928

With CG11426 (GeneID 40471), how do the results read?
firefly Hh reporter signal, replicate 1: 1.04e5; firefly Hh reporter signal, replicate 2: 78627; Renilla reference signal, replicate 1: 3496; Renilla reference signal, replicate 2: 1569

Which result is listed for mub (GeneID 40436)?
firefly Hh reporter signal, replicate 1: 1.06e5; firefly Hh reporter signal, replicate 2: 87915; Renilla reference signal, replicate 1: 4196; Renilla reference signal, replicate 2: 3369

For CG2267 (GeneID 43639), what does the deposit list?
firefly Hh reporter signal, replicate 1: 78912; firefly Hh reporter signal, replicate 2: 99748; Renilla reference signal, replicate 1: 2343; Renilla reference signal, replicate 2: 2456

For CG13607 (GeneID 42859), how do the results read?
firefly Hh reporter signal, replicate 1: 6.24e5; firefly Hh reporter signal, replicate 2: 1.04e5; Renilla reference signal, replicate 1: 29786; Renilla reference signal, replicate 2: 3373

With betaTry (GeneID 47901), how do the results read?
firefly Hh reporter signal, replicate 1: 1.58e5; firefly Hh reporter signal, replicate 2: 7.61e5; firefly Hh reporter signal, replicate 3: 95739; Renilla reference signal, replicate 1: 4082; Renilla reference signal, replicate 2: 6299

With RpS12 (GeneID 39480), how do the results read?
firefly Hh reporter signal, replicate 1: 76896; firefly Hh reporter signal, replicate 2: 26340; Renilla reference signal, replicate 1: 3994; Renilla reference signal, replicate 2: 1155

With mlt (retired record) (GeneID 44912), what does the deposit list?
firefly Hh reporter signal, replicate 1: 75052; firefly Hh reporter signal, replicate 2: 34801; Renilla reference signal, replicate 1: 3808; Renilla reference signal, replicate 2: 1368

What is on record for CG5191 (GeneID 42431) #1?
firefly Hh reporter signal, replicate 1: 1.77e5; firefly Hh reporter signal, replicate 2: 1.70e5; Renilla reference signal, replicate 1: 7174; Renilla reference signal, replicate 2: 5926

How did the screen score CG5191 (GeneID 42431) #2?
firefly Hh reporter signal, replicate 1: 5.81e5; firefly Hh reporter signal, replicate 2: 88816; Renilla reference signal, replicate 1: 33104; Renilla reference signal, replicate 2: 2450

With ntc (GeneID 38443), what was measured?
firefly Hh reporter signal, replicate 1: 83527; firefly Hh reporter signal, replicate 2: 82034; Renilla reference signal, replicate 1: 3738; Renilla reference signal, replicate 2: 3088

For PVRAP (GeneID 38677) #1, how do the results read?
firefly Hh reporter signal, replicate 1: 26224; firefly Hh reporter signal, replicate 2: 44181; Renilla reference signal, replicate 1: 2736; Renilla reference signal, replicate 2: 3013

For PVRAP (GeneID 38677) #2, what does the deposit list?
firefly Hh reporter signal, replicate 1: 40416; firefly Hh reporter signal, replicate 2: 52269; Renilla reference signal, replicate 1: 3835; Renilla reference signal, replicate 2: 3017
